No constants are given. Whether binding was seen depends on the method and setting. In cells and extracts the contact can be indirect. Binding can be weak; no strength is given.

From article PMC9631063, “Schisandrin B Attenuates Diabetic Cardiomyopathy by Targeting MyD88 and Inhibiting MyD88‐Dependent Inflammation” (Advanced Science, 2022) come the findings set out here.

Experiment [1] concerns the target T1, Toll‐like receptor 4 (rat, endogenous) (rat (endogenous in H9C2 and rat primary cardiomyocytes)) (UniProt Q9QX05).
T1 sequence: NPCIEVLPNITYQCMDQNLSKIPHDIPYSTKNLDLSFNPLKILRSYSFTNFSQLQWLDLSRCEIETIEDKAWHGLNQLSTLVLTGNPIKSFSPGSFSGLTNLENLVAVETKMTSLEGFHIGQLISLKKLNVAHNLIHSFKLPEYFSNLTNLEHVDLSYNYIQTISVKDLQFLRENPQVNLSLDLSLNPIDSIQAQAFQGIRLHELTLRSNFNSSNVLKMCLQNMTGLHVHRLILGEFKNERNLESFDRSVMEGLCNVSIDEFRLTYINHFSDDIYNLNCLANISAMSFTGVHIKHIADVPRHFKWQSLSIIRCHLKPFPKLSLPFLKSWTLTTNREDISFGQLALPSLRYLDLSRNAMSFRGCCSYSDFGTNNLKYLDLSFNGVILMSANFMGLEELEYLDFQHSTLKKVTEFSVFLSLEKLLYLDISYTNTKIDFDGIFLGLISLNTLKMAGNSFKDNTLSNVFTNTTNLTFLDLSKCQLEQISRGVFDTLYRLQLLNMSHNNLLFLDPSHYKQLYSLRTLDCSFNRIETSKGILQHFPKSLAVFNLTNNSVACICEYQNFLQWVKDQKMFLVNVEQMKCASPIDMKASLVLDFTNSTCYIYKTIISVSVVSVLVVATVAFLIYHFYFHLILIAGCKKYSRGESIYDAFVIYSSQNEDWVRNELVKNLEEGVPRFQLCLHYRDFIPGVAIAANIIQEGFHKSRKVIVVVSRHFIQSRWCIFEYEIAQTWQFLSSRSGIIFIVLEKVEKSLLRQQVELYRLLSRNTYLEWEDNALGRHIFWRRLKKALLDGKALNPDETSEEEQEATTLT
The experiment can be described thus: co-IP; lysates of H9C2 cells (control, HG 33 mM glucose 30 min, with or without 10 uM Sch B pretreatment 1 h); TLR4 immunoprecipitated and TRIF, MyD88 blotted; MD2 immunoprecipitated and TLR4 blotted; TLR2-MyD88 co-IP (Figure S5); protein G-Sepharose.

Experiment [2] addresses T1, Toll‐like receptor 4 (rat, endogenous) (rat (endogenous in H9C2 and rat primary cardiomyocytes)). The experiment can be described thus: co-IP; lysates of rat primary cardiomyocytes (control, HG 30 min, with or without 10 uM Sch B pretreatment 1 h); MD2/TLR4, TLR4/TRIF and TLR4/MyD88 complexes; protein G-Sepharose.
In experiment [3] the target is myeloid differentiation factor 2 (rat, endogenous) (rat (endogenous in H9C2 and rat primary cardiomyocytes)). The experiment can be described thus: co-IP; lysates of H9C2 cells (control, HG 33 mM glucose 30 min, with or without 10 uM Sch B pretreatment 1 h); TLR4 immunoprecipitated and TRIF, MyD88 blotted; MD2 immunoprecipitated and TLR4 blotted; TLR2-MyD88 co-IP (Figure S5); protein G-Sepharose.

The target is the same in experiment [4]. The experiment can be described thus: co-IP; lysates of rat primary cardiomyocytes (control, HG 30 min, with or without 10 uM Sch B pretreatment 1 h); MD2/TLR4, TLR4/TRIF and TLR4/MyD88 complexes; protein G-Sepharose.

“TIR‐domain‐containing adapter‐inducing interferon‐β (rat, endogenous)”: the binding entry in experiment [1] and in experiment [2] was “binds” throughout.

B1: Toll‐like receptor 4 (rat, endogenous) (receptor, UniProt Q9QX05 26-835)
chain: T1 sequence
Take B1: the binding entry in experiment [3] and in experiment [4] was “binds” throughout.
